Results reported in PubChem BioAssay AID1347423 (Functional Genomics Laboratory (NCATS/FGL), 2020).
The whole screen tested about 52,000 sequences, of which about 210 (0.4%) were called active.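 The calls were made as follows: active = gene whose silencing raises cell survival under the drug, median off-target-corrected z-score across its silencing RNAs 2 or more; inactive = the rest.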 Some of the results follow.

Assay: Resistance to Poly (ADP-Ribose) Polymerase inhibitor: Gene Identification via Genome-wide siRNA Screen
Settings: mouse BRCA2 R2336H ES cells, olaparib, CellTiter-Glo viability; stronger effect = higher value
Outline: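 Mouse BRCA2 R2336H ES cells were reverse-transfected with siRNA (20 nM final), treated at 48 h with 500 nM olaparib, and read by CellTiter-Glo after 72 h. Scores: MAD-based z per siRNA, median per gene, seed off-target correction.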

Sequence	z-score
GGCAUAGGAAAAACAUGAATT against C1qtnf1	inactive: 0.846
GGAAAAAUUUGAAGCAGGATT against 1810063B05Rik	inactive: -0.374
GCUGCAUAGAUUCCAUAAUTT against Lxn	inactive: -1.11
GCAGGGUGUCUACUUGUUGTT against Gata4	inactive: -0.384
GUCUUUAACUCUCCUAUGUTT against 2310034C09Rik	inactive: -0.0533
GCAAGUGAGACCUACUGUATT against 6820443O06Rik	inactive: -2.01
CCACCAUCGGUUGUUAGUUTT against Actg	inactive: 0.898
GGUUUCCAGUAAGAUCUUATT against A130070M06	inactive: -0.825
GGAGCACUUGAUUAAACAUTT against Syt10	inactive: 0.37
GGUUUCUAUUGUGUUCAUUTT against Birc2	inactive: -0.135
GGAAGUUUAGUCUCAAAACTT against Csnk1d	inactive: -0.0755
GGCUCAAGAAACUGGAGCUTT against Usp21	inactive: -0.189
CGCCAUGCUUAGAUUUAAATT against 1600013P15Rik	inactive: -0.161
GGGCUCAACAGUUUCAACCTT against Mrpl4	inactive: 0.983
GGGCAUGGCCUUUACACUUTT against 1700020C08Rik	inactive: 1.55
GGGCUGACUGUGAAGUAUGTT against 9330140G23	inactive: -0.26
GGUGACCGUUGUAACUGUGTT against 0610008A10Rik	inactive: 0.16
CCUCUGAACUCCAACCGAATT against 1700023E05Rik	inactive: 3.66
GGCAGAAGAGCAGUCUGAATT against D17Ertd488e	inactive: -2.24
CCAGACUACGGUGCUAAGATT against 4930525K10Rik	inactive: -0.597
GGCAACUCUUAAAAAACCATT against Igfbpl1	inactive: 2.28
GGUUUACUGUGAAAAAAGATT against 4932411A10Rik	inactive: -0.598
GGUGCUCUUUUCAGAAAAATT against Ptpla	inactive: 3.65
GCUAACAUGUUGUCUUAAATT against Tm4sf12	inactive: -0.254
GGUACAGUAUGAUACUCACTT against Olfr678	inactive: -0.458
GGACAAAGUACAUUUAUGGTT against Il7r	inactive: 0.756

Sequence	z-score
GGAAAUGUGGAGAGAAAAUTT against P2ry4	inactive: -0.358
CCAUUGCAGCAUACUGUCCTT against Serpina1b	inactive: -1.23
CGUGGCUCAAAUUUUCAACTT against Cab39	inactive: -0.381
GGAAAAGAAAGCAAAGAGATT against Dach1	inactive: -0.059
GGAAAAACAAGAAAGGGAATT against Cdyl	inactive: -0.297
GCUGGAAGAUCUGCUCAACTT against 6430537H07Rik	inactive: 0.724
GGAAGGUAGUGCUAAUCAGTT against Neil2	inactive: 0.0179
GGAGUCAGUGCACAUAAUGTT against Usp52	inactive: -2.21
GGUACUAAAUCAAACAUCCTT against Angpt1	inactive: 1.73
GGUUCAGACACCACUUCAGTT against Bgn	inactive: -0.627
GGACAUCCCAGACAAUUUUTT against Lxn	inactive: -2.05
GCCCAGCAUGGAUAGAUUATT against C79407	inactive: 0.0059
GGCUUUGCUAUCAACUCGCTT against 4732472I07Rik	inactive: 0.344
GCCUUUACUGGAUUCAUUGTT against Acadm	inactive: -1.37
GGAAUGCAAAAAACUCUGGTT against Gzmg	inactive: -0.54
CGUUCUCUUGAAAUAAGCCTT against Pogk	inactive: 0.191
CCGAGAUGAUUAUUCAUAATT against Slc17a6	inactive: -0.358
GCUUCCUCGUAUCUACACCTT against Phb	inactive: -2.61
GGUGAACACAACCAAACCATT against D15Ertd366e	inactive: -0.06
GGAACUGACUGCCUAUUCCTT against Gnb3	inactive: -0.645
CCAGCAAUAGUUCAGCAGATT against 2310043N13Rik	inactive: -0.766
GGUGAUUUUAAUAUGCCUGTT against Cox15	inactive: 0.119
AAUAAAAGUGUCCUCUGUGTT against Olfr242	inactive: -1.61
GGAUCAAUGCUAAGCUCCATT against Olfr1176	inactive: -2.35
GGAUAUGCUCUCUUGGCUCTT against Ctsk	inactive: -0.645
GGGCCAGGUAUUCAUGGAATT against Ciapin1	inactive: 1.97

Sequence	z-score
GCUCAGAAAUUAAUCAUCATT against C330011M18Rik	inactive: 0.807
GGUCGGUUGCUUUAGUGAATT against Magee2	inactive: 0.303
AUGACUAGAUACUCAGAUGTT against 4930451E10Rik	inactive: 1.77
GGAGGAUGCAGCUAACAAUTT against Tuba8	inactive: -1.76
GCCGGAUACUCAAAUAACGTT against Svs5	inactive: -0.771
GGAAGGAAACAGAAAAGUATT against 5830483C08Rik	inactive: 0.149
GGCAAAGUACUACGUGCAGTT against Sh3bp5	inactive: 0.298
GGCUAAAGCGCAAAAGGGCTT against Nav1	inactive: -0.179
GCUCUUUCUUCAUUCCACATT against Krtap5-5	inactive: -0.209
GCAAAUCAAACGAUCAGCUTT against Cxxc1	inactive: -2.18
GGAUUUUCACAUUGCAUCUTT against 4921520P21Rik	inactive: 0.236
GCACAAUUUUAUAACUCGGTT against D430025H09Rik	inactive: -1.13
GCCUUACGUGUCAGACUAUTT against Theg	inactive: -2.57
GGUAGAGUACCCUGUCAUGTT against Mgst3	inactive: -1.5
GGGUCAGUCAGGAAUGUUGTT against Mad2l1	inactive: 0.282
CCCUAUGACAAGAAAAAGCTT against Rpl13a	inactive: -3.5
GGUGAAAAACUAUAGCAACTT against Mtx2	inactive: -0.024
GGGAUGCCGAAGACAAUAGTT against V1rh21	inactive: 0.281
GGCUAAAAAAGACUUGGAATT against Pms1	inactive: 0.205
GGAUGUUAAAGCCAUAUACTT against Msh6	inactive: 0.0717
GGCACAAACUAGAUGCAGATT against MGC54896	inactive: -0.473
GCCGUAACUGCUCUGAAUGTT against Rnf34	inactive: -0.0868
AUCGAAACCCUGGAGUCGUTT against Nrp	inactive: -0.136
GGUUUAACUGUAGCAUAAGTT against E430028B21Rik	inactive: 0.156
GGGAUAACUCACACCACGGTT against Bscl2	inactive: 2.49
GGAUGGCUUUCAUAUCCGATT against Rpl10	inactive: -2.98

Rewritten as a markdown table: entries from further up

| Sequence | z-score |
| --- | --- |
| GGGCCAGGUAUUCAUGGAATT against Ciapin1 | inactive: 1.97 |
| GCUCAGAAAUUAAUCAUCATT against C330011M18Rik | inactive: 0.807 |
| GGUCGGUUGCUUUAGUGAATT against Magee2 | inactive: 0.303 |
| AUGACUAGAUACUCAGAUGTT against 4930451E10Rik | inactive: 1.77 |
| GGAGGAUGCAGCUAACAAUTT against Tuba8 | inactive: -1.76 |
| GCCGGAUACUCAAAUAACGTT against Svs5 | inactive: -0.771 |
| GGAAGGAAACAGAAAAGUATT against 5830483C08Rik | inactive: 0.149 |
| GGCAAAGUACUACGUGCAGTT against Sh3bp5 | inactive: 0.298 |
| GGCUAAAGCGCAAAAGGGCTT against Nav1 | inactive: -0.179 |
| GCUCUUUCUUCAUUCCACATT against Krtap5-5 | inactive: -0.209 |
| GCAAAUCAAACGAUCAGCUTT against Cxxc1 | inactive: -2.18 |
| GGAUUUUCACAUUGCAUCUTT against 4921520P21Rik | inactive: 0.236 |
| GCACAAUUUUAUAACUCGGTT against D430025H09Rik | inactive: -1.13 |
| GCCUUACGUGUCAGACUAUTT against Theg | inactive: -2.57 |
| GGUAGAGUACCCUGUCAUGTT against Mgst3 | inactive: -1.5 |
| GGGUCAGUCAGGAAUGUUGTT against Mad2l1 | inactive: 0.282 |
| CCCUAUGACAAGAAAAAGCTT against Rpl13a | inactive: -3.5 |
| GGGAUGCCGAAGACAAUAGTT against V1rh21 | inactive: 0.281 |
| GGCUAAAAAAGACUUGGAATT against Pms1 | inactive: 0.205 |
| GGAUGUUAAAGCCAUAUACTT against Msh6 | inactive: 0.0717 |
| GGCACAAACUAGAUGCAGATT against MGC54896 | inactive: -0.473 |
| GCCGUAACUGCUCUGAAUGTT against Rnf34 | inactive: -0.0868 |
| AUCGAAACCCUGGAGUCGUTT against Nrp | inactive: -0.136 |
| GGUUUAACUGUAGCAUAAGTT against E430028B21Rik | inactive: 0.156 |
| GGGAUAACUCACACCACGGTT against Bscl2 | inactive: 2.49 |
| GGAUGGCUUUCAUAUCCGATT against Rpl10 | inactive: -2.98 |

The listing continues:

Sequence	z-score
GGAUUUUUCUUUUGAGCGATT against Figf	inactive: -0.866
GGCACACCUUUUGUUAGUGTT against Ywhag	inactive: -1.27
AAUACCUAGACUGACAUGUTT against Trp53rk	inactive: 0.282
GGGAUUGUUCGAGUUGUCUTT against Phtf2	inactive: 0.603
GGCAAAAUUGGCAAAGAAUTT against Tollip	inactive: -0.137
GCGAGGAGAGUGUGUUUUCTT against Bop1	inactive: -1.81
GGUGUUAUCAGAAUUCAGATT against Cars	inactive: -1.21
GGGCUCGUCAUGAUAUUUGTT against Rnf41	inactive: -0.0776
GGAACCUUCUUCCUGAUGATT against Oprm1	inactive: -0.575
GGAACACAGUUCUCUGAGATT against Ighmbp2	inactive: -0.736
GGGACUGUGGAUGGAAUGUTT against Cldn14	inactive: -1.03
GGGAGCUUCCAUGUUGACATT against Uqcr	inactive: -1.78
GGGUUAUGCUGUCUUGGUGTT against B230114J08Rik	inactive: -0.624
GGCUGCUCGAAUCAGUCAUTT against Slc27a3	inactive: 0.0555
GGGCAGAACGCAUCUUGCATT against Gpt1	inactive: 2.43
GCUAUUGAUGAACCUAACATT against Trpc5	inactive: 0.0413
GGGCUCUUGUGUUAAGGCATT against Krt1-c29	inactive: 1.06
GAUUCCACGCCAAUUCAUCTT against Ccl3	inactive: -1.53
GCUAUGUGUGGAACACCAUTT against C330017I15Rik	inactive: 1.24
GGAAAUCUCACGUAAUUAATT against Anxa9	inactive: -1.33
GGCGAAGGAAGAGUGUGAATT against Sox8	inactive: -1.58
CGCUUAAAGACCUCAUCUCTT against Ap1b1	inactive: 0.882
CCAAGACCGGUUAAAAGAGTT against Myo1e	inactive: -0.337
GGGAGUCCUGAAGGACUACTT against Lgmn	inactive: -0.124
GGCCUUCUAUUUUGUCAAUTT against Limd1	inactive: 2.49
GGAAGAAUGGAGCAGAGCUTT against Punc	inactive: 1.67
